Measured values: patent publication US7407772B2, “Screening and selection methods for statin drug combinations” (Merck & Co., Inc., priority 2001, dated 2008)

Tests used:
[1] = system: glucuronidation of SVA (UDPGA-dependent); experiment: in vitro; settings: human, liver microsomes, pH 7, probe SVA (10-20 μM), IC50, SVA Glucuronidation, statin 10-20 μM
Description: (§1) The term “glucuronidation inhibition assay” as used herein refers to the following assay when performed with human liver microsomes.
(§2) The effects of inhibitors on metabolism of the statins were expressed as percentages of metabolites (statin glucuronides and lactones) formed in the presence of inhibitors relative to the corresponding values obtained in the absence of inhibitors (control) on the same day.
(§3) Incubations were performed in triplicate for each concentration of inhibitors, and involved co-incubation of GFZ or ketoconazole (1 μM) with statins (10-20 μM) in the presence of NADPH (oxidation) or UDPGA (glucuronidation).

[2] = system: glucuronidation of CVA (UDPGA-dependent); experiment: in vitro; settings: human, liver microsomes, pH 7, probe CVA (10-20 μM), IC50, CVA Glucuronidation, statin 10-20 μM
Description: as §1, §2, §3

[3] = dog, in vivo, po

IC50 [1]: 682 µM
IC50 [2]: 433 µM
SVA/SV AUC ratio, Feno/vehicle [3]: 0.8 ± 0.2
Compound: CC(C)OC(=O)C(C)(C)Oc1ccc(C(=O)c2ccc(Cl)cc2)cc1 [Fenofibrate, fenofibrate]
